The results in this text go back to US20160311910A1.

No constants are given. Whether binding was seen depends on the method and setting. Some results given as binding are weak or reduced against the parent protein; the word gives no strength.

Assay [1] has as its target T1, Thymic Stromal Lymphopoietin Receptor (TSLPR), human, on ALL cells (human) (UniProt Q9HC73).
T1 sequence (looked up): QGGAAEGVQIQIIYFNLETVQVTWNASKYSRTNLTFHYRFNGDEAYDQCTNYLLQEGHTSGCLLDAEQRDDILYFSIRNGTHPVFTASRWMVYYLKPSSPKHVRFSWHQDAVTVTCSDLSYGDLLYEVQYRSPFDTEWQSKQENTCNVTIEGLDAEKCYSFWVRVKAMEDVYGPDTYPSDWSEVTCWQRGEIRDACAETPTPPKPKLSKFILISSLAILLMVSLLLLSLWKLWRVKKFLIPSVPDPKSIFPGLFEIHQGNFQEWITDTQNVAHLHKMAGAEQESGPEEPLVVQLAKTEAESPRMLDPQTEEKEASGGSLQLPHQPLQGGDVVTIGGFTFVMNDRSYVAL
Description: flow cytometry on TSLPRhi ALL cells, hybridoma supernatant, goat anti-mouse-PE. (In flow cytometry, cells or beads pass a laser one at a time.)

The target of assay [2] is T1, Thymic Stromal Lymphopoietin Receptor (TSLPR), human, on ALL cells (human). Description: flow cytometry on ALL cells overexpressing TSLPR, PE-conjugated goat anti-mouse antibody.

B1: 3G11 anti-TSLPR antibody (antibody, V domains shown)
VH: QVTLKESGPGILKPSQTLSLTCSFSGFSLSTSGMGVGWIRQPSGKGLEWLAHIWWDDDKYYNPSLKSQLTISKDTSRNQVFLKITSVDTADTATYYCSRRPRGTMDAMDYWGQGTSVTVSS
VL: DIVMTQAASSLSASLGDRVTISCRASQDISKYLNWYQQKPDGTVKLLIYYTSRLHSGVPSRFSGSGSGTDYSLTIRNLEQEDIATYFCQQVYTLPWTFGGGTKLEIK
On to B1, for which the binding entry in assay [1] and in assay [2] was “binds” in each case.
